From the supplement of paper PMC10849652
The list shows a part of the results.

Chains of the proteins cited; added tags and fusions are not shown. Lines headed by an entry give the natural chain unless they say otherwise; changes in a name come on top.
UniProt Q5VT06: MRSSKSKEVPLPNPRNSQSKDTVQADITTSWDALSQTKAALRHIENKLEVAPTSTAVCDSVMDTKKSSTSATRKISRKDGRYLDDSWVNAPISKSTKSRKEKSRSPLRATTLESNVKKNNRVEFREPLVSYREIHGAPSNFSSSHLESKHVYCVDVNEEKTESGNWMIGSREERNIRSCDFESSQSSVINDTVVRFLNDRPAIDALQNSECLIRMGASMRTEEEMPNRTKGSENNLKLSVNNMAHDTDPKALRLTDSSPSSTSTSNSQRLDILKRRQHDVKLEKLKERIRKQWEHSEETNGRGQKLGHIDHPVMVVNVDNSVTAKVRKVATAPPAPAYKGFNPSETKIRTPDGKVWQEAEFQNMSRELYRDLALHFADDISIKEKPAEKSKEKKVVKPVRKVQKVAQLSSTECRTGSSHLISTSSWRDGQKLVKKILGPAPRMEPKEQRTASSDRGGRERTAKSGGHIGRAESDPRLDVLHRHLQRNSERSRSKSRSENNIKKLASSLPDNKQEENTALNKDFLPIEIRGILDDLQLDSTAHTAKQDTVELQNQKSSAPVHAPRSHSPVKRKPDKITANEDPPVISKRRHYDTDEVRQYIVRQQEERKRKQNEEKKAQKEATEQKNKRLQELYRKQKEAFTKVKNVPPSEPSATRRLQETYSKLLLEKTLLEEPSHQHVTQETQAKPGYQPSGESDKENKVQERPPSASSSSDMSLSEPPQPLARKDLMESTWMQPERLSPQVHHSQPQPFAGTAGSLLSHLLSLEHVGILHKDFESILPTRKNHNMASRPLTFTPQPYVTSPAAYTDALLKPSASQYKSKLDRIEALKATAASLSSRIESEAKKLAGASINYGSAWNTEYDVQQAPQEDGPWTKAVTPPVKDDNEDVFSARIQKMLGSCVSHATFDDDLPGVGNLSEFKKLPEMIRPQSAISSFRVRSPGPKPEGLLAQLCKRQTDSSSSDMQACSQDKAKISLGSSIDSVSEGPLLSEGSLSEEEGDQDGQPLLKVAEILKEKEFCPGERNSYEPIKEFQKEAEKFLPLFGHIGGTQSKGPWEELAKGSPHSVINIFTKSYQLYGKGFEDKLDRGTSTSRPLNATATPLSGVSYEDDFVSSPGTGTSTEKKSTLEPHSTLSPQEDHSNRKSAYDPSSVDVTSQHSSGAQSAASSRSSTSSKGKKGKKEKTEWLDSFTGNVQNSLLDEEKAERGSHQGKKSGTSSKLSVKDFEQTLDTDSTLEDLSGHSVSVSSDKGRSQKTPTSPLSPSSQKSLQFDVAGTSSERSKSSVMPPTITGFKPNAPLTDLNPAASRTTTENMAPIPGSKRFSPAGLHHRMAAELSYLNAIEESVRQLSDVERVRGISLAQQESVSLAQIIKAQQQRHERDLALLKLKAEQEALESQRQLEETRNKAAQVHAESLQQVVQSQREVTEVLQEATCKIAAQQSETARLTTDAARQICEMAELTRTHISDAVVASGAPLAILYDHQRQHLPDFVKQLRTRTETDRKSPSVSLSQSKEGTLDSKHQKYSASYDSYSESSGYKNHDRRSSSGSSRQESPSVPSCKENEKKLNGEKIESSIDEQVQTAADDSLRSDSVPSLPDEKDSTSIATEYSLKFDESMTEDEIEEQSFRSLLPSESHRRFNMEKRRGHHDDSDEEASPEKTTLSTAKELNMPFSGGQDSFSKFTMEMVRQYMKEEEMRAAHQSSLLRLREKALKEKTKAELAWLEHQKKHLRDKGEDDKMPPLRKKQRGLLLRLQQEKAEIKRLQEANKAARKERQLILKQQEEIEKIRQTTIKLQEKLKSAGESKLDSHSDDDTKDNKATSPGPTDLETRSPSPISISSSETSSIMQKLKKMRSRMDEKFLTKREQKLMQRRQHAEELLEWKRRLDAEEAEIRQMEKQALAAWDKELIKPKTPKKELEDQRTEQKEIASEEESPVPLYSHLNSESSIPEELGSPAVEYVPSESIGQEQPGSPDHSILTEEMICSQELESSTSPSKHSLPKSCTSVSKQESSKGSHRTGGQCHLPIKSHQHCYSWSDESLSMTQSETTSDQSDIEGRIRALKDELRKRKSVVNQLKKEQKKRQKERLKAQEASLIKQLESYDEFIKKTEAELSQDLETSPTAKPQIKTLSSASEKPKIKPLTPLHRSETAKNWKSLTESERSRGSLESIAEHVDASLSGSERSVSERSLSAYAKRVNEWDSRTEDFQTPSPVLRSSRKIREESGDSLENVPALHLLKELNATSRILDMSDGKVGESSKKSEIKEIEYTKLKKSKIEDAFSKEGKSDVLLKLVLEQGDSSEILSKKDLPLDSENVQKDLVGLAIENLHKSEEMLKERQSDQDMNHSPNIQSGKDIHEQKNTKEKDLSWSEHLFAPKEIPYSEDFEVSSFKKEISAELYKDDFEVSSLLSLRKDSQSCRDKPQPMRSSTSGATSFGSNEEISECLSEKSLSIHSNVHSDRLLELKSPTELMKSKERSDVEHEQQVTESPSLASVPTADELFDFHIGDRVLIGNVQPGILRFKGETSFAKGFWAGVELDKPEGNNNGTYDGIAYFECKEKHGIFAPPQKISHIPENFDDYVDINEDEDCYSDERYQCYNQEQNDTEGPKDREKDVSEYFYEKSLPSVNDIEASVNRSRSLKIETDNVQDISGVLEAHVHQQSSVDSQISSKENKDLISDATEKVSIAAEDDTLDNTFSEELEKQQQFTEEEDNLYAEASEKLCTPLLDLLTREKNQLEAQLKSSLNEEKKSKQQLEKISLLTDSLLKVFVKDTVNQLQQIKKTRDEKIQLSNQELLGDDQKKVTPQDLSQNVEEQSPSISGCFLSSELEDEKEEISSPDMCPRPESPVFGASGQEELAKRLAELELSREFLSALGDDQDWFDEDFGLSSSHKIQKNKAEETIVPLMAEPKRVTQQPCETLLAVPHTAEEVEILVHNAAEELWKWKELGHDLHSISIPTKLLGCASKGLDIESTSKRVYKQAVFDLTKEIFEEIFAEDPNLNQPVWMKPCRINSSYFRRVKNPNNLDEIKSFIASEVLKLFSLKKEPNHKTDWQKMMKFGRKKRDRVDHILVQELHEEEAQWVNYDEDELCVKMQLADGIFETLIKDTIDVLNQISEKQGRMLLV
UniProt Q5SW79: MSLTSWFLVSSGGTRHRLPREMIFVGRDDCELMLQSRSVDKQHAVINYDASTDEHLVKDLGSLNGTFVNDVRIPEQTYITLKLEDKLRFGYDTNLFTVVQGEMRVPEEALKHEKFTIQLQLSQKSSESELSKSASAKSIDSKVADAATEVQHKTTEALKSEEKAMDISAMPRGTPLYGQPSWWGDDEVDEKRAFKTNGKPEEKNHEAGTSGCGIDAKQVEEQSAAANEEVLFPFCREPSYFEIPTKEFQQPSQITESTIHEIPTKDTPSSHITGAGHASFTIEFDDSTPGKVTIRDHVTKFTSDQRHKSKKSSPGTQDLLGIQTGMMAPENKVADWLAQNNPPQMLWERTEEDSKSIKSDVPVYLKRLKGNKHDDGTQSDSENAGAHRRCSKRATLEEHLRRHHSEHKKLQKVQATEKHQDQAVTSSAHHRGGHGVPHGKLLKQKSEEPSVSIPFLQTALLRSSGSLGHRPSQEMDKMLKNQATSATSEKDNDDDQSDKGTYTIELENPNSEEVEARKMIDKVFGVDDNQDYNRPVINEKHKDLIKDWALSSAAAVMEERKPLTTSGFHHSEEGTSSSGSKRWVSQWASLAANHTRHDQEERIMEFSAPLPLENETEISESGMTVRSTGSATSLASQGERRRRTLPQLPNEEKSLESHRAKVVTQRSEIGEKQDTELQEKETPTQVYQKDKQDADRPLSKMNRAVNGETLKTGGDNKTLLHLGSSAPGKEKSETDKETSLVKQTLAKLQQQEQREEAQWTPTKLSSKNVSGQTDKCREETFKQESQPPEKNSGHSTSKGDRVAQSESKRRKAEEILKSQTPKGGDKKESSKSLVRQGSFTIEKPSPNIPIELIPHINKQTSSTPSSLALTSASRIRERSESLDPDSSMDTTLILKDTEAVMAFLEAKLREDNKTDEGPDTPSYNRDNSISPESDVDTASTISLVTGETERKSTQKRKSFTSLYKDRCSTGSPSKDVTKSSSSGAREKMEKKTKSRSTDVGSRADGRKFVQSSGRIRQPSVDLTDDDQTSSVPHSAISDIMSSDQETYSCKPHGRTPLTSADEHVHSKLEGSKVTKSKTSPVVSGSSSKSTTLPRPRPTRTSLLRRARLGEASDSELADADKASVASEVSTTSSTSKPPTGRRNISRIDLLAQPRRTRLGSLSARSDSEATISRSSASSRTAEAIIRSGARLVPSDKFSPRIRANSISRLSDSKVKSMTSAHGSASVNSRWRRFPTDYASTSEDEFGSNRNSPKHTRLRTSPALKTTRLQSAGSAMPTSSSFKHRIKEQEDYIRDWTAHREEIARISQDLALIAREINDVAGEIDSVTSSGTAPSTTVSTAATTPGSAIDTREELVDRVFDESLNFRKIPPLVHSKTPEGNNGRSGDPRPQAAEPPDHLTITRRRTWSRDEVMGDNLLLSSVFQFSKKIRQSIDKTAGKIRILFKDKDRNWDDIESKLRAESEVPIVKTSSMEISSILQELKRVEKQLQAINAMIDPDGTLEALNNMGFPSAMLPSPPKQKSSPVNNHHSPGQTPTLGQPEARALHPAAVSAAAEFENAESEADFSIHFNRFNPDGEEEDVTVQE
UniProt Q9Y281, whole entry, looked up: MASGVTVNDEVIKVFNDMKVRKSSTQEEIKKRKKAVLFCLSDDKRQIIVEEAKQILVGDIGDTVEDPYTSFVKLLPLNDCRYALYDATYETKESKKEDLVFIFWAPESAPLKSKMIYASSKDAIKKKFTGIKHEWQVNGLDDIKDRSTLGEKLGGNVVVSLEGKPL
UniProt Q8NHZ8, whole entry, looked up: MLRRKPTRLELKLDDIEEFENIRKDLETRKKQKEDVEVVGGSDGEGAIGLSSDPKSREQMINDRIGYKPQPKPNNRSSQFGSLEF
UniProt Q71F23: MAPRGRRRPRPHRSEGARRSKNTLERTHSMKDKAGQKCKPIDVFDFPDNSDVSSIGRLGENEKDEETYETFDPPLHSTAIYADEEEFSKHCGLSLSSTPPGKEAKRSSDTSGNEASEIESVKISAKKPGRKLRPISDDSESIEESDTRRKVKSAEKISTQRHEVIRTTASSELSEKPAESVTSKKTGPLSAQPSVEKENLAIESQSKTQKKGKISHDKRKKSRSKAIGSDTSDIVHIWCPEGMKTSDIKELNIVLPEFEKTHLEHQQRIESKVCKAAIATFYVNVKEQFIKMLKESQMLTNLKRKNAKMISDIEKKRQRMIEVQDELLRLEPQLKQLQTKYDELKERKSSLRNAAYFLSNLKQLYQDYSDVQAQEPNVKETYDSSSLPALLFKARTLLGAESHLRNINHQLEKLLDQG
UniProt Q66GS9: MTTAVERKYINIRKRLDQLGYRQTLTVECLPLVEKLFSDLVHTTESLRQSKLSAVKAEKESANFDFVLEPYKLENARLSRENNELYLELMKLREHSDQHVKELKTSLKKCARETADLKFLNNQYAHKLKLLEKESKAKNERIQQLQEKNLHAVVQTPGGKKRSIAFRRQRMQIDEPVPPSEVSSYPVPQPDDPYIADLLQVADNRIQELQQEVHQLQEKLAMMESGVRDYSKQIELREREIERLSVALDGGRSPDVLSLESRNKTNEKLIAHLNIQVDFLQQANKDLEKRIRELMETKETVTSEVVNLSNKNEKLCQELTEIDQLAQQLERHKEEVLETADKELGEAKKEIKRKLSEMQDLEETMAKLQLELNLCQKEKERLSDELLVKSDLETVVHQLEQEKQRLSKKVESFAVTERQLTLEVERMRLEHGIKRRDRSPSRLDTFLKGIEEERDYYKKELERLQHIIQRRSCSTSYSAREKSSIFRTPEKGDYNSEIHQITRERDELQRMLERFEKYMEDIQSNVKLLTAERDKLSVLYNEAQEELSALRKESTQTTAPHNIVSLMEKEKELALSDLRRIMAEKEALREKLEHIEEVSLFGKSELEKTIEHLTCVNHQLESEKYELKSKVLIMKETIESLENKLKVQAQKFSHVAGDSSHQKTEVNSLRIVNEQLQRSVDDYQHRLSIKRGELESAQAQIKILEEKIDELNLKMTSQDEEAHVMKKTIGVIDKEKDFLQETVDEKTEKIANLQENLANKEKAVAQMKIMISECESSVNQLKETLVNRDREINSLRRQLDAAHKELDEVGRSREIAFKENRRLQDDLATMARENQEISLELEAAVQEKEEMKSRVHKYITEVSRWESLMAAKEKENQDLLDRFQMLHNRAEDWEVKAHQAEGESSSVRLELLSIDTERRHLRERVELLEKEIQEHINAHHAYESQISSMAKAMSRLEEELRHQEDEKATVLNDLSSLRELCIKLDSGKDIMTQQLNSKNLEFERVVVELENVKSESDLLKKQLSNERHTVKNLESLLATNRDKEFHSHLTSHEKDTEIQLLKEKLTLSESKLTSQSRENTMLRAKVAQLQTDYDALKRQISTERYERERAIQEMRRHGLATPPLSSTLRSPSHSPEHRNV

The targets below were run with CNc1nc(-c2ccc3c(N)n[nH]c3c2)cc(N2C[C@@H](C(=O)NC3CCCCC3)CC[C@H]2C)n1 (assay: log2 fold change, soluble protein after heating vs DMSO (PISA); higher = thermal stabilisation; K562 lysate, 10 uM; active = over 0.2 and 3.5 SD of the protein, either way, in both replicates (recomputed)).
In short: (§1)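 Log-two fold change in thermal stability relative to solvent controls is reported from duplicates. For each sample, crude K562 extract from dounce-homogenised pellets in PBS pH 7.4 with 1 mM MgCl2, at 1 mg/mL protein, was treated with 10 μM compound for 30 min. Aliquots heated for 3 min across 48°C-58°C were pooled, brought to 0.5% NP-40 at 4°C and cleared at 21,000xg for 90 min. The supernatant was quantified by TMTpro 16plex LC-MS/MS with channel sums equalised.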

log2 fold change, inactive:
CEP350 (UniProt Q5VT06) -0.045
CEP170 (UniProt Q5SW79) 0.049
CFH (UniProt P08603) 0.128
CFL2 (UniProt Q9Y281) 0.107
CFDP1 (UniProt Q9UEE9) -0.051
CEP97 (UniProt Q8IW35) -0.027
CDCA3 (UniProt Q99618) 0.17
CDC42 isoform 1 (UniProt P60953) 0.022
CENPH (UniProt Q9H3R5) -0.013
CERS2 (UniProt Q96G23) 0.001
CDC45 isoform 3 (UniProt O75419) -0.017
CFL1 (UniProt P23528) -0.018
CENPK (UniProt Q9BS16) 0.016
CDCP1 (UniProt Q9H5V8) -0.045
CDC26 (UniProt Q8NHZ8) -0.033
CENPU (UniProt Q71F23) 0.013
CDC42BPB (UniProt Q9Y5S2) 0.181
CEP85 isoform 2 (UniProt Q6P2H3) -0.01
CDKAL1 (UniProt Q5VV42) -0.005
CEP135 (UniProt Q66GS9) -0.037
CDK19 (UniProt Q9BWU1) -0.046
CEP76 (UniProt Q8TAP6) -0.023
CDIPT (UniProt O14735) -0.064
CDR2 (UniProt Q01850) 0.158
CDC40 (UniProt O60508) 0.069
CDC42 (UniProt P60953) 0.04
CETN2 (UniProt P41208) -0.025
CDC23 (UniProt Q9UJX2) -0.014
CDK2AP1 (UniProt O14519) 0.169
CDC37L1 (UniProt Q7L3B6) 0.074
CENPS (UniProt Q8N2Z9) 0.095
CDC5L (UniProt Q99459) -0.017
CERS6 isoform 2 (UniProt Q6ZMG9) -0.127

What follows are targets tested with COC(=O)N[C@@H](C)CNc1nccc(-c2cn(C(C)C)nc2-c2cc(Cl)cc(NS(C)(=O)=O)c2F)n1 [encorafenib] in the same assay as above.
In short: as §1

log2 fold change, inactive:
CEP350 (UniProt Q5VT06) 0.049
CEP170 (UniProt Q5SW79) 0.036
CFH (UniProt P08603) 0
CFL2 (UniProt Q9Y281) -0.003
CFDP1 (UniProt Q9UEE9) 0.005
CEP97 (UniProt Q8IW35) -0.009
CDCA3 (UniProt Q99618) 0.015
CDC42 isoform 1 (UniProt P60953) -0.002
CENPH (UniProt Q9H3R5) 0.015
CERS2 (UniProt Q96G23) -0.023
CDC45 isoform 3 (UniProt O75419) 0.001
CFL1 (UniProt P23528) -0.042
CENPK (UniProt Q9BS16) 0.006
CDCP1 (UniProt Q9H5V8) 0.01
CDC26 (UniProt Q8NHZ8) 0.015
CENPU (UniProt Q71F23) 0.088
CDC42BPB (UniProt Q9Y5S2) 0.118
CEP85 isoform 2 (UniProt Q6P2H3) 0.047
CDKAL1 (UniProt Q5VV42) 0.052
CEP135 (UniProt Q66GS9) 0.009
CDK19 (UniProt Q9BWU1) -0.042
CEP76 (UniProt Q8TAP6) -0.006
CDIPT (UniProt O14735) 0.043
CDR2 (UniProt Q01850) 0.042
CDC40 (UniProt O60508) 0.095
CDC42 (UniProt P60953) -0.039
CETN2 (UniProt P41208) 0.123
CDC23 (UniProt Q9UJX2) 0.013
CDK2AP1 (UniProt O14519) 0.037
CDC37L1 (UniProt Q7L3B6) -0.002
CENPS (UniProt Q8N2Z9) 0.015
CDC5L (UniProt Q99459) 0.004
CERS6 isoform 2 (UniProt Q6ZMG9) 0.027

These targets were tested with COC(=O)[C@H](CCSC)NC(=O)C1=C(C=C(C=C1)NC[C@H](CS)N)C2=CC=CC=C2 in the same assay as above.
In short: as §1

log2 fold change, inactive:
CEP350 (UniProt Q5VT06) -0.026
CEP170 (UniProt Q5SW79) -0.017
CFH (UniProt P08603) 0.016
CFL2 (UniProt Q9Y281) 0.009
CFDP1 (UniProt Q9UEE9) -0.021
CEP97 (UniProt Q8IW35) 0.068
CDCA3 (UniProt Q99618) -0.028
CDC42 isoform 1 (UniProt P60953) -0.052
CENPH (UniProt Q9H3R5) 0.006
CERS2 (UniProt Q96G23) -0.027
CDC45 isoform 3 (UniProt O75419) 0.019
CFL1 (UniProt P23528) -0.044
CENPK (UniProt Q9BS16) 0.002
CDCP1 (UniProt Q9H5V8) -0.102
CDC26 (UniProt Q8NHZ8) -0.214
CENPU (UniProt Q71F23) -0.003
CDC42BPB (UniProt Q9Y5S2) -0.168
CEP85 isoform 2 (UniProt Q6P2H3) -0.17
CDKAL1 (UniProt Q5VV42) 0.038
CEP135 (UniProt Q66GS9) 0.032
CDK19 (UniProt Q9BWU1) -0.043
CEP76 (UniProt Q8TAP6) 0.005
CDIPT (UniProt O14735) -0.045
CDR2 (UniProt Q01850) 0.031
CDC40 (UniProt O60508) 0.069
CDC42 (UniProt P60953) 0.013
CETN2 (UniProt P41208) -0.047
CDC23 (UniProt Q9UJX2) -0.055
CDK2AP1 (UniProt O14519) -0.232
CDC37L1 (UniProt Q7L3B6) -0.029
CENPS (UniProt Q8N2Z9) 0.016
CDC5L (UniProt Q99459) 0.02
CERS6 isoform 2 (UniProt Q6ZMG9) -0.119
